The other results are listed elsewhere or left out. These are further read-outs of the screen, such as a control signal, another cell line or another target. No call is given for them. Most of these compounds were active or inconclusive in the main read-out, so they are no random draw. The note in brackets gives the kind of curve behind each potency; many fits are weak.
Assay: qHTS Assay for Lipid Storage Modulators in Drosophila S3 Cells;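 on cell number change: cells counted by Cell Tracker Red CMTPX staining in the red channel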
Details: BODIPY lipid droplet fluorescence, 18-24 h; for cell number change: measured here: cell count max response, cells fed with added oleic acid
Method in brief: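 Drosophila S3 cells got compounds at several concentrations plus oleic acid (400 uM solution). Laser-scanning cytometry with 488 nm excitation read lipid droplets at 500-530 nm and cells at 575-640 nm. Percent activity was relative to 20 uM Triacsin C.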

[1] = measured here: cell number channel AC50, cells fed with added oleic acid
[2] = measured here: lipid fluorescence (Fed channel) AC50, cells fed with added oleic acid

| Compound | cell number change | AC50 [1] | AC50 [2] |
| --- | --- | --- | --- |
| COc1cccc(NC(=O)Nc2cc(Cl)ccc2C)c1 | 7.12% | 3.26 µM [rising, single point] | – |
| C=CCN1CCN(Cc2cnc(Cl)s2)CC1 | -95.7% | 16.4 µM [falling, partial curve] | 18.4 µM [falling, partial curve] |
| COc1ccc2c(c1)c(=O)oc1cc(OCC(=O)N3CCC(C)CC3)ccc12 | -64.3% | 20.6 µM [falling, single point] | – |
| COCCCNC(=O)c1ccccc1NS(=O)(=O)c1ccc(C)cc1 | – | – | 6.51 µM [rising, single point] |
| COc1cc(NC(=O)C2C3C=CC(C3)C2C(=O)O)c(OC)cc1Cl (stereo unspecified) | 101% | 29.1 µM [rising, single point] | – |
| S=c1nc(-c2ccccc2)n(Cc2ccco2)c2c1CCCC2 | -5.92% | – | 32.6 µM [rising, single point] |
| COc1cccc(NC(=O)CN(C)C(=O)c2ccc(-c3ccccc3Cl)o2)c1 | 58.4% | 13 µM [rising, partial curve] | 29.1 µM [rising, single point] |
| Cc1ccc(/C=C/c2ccc3cccc(O)c3n2)s1 | 29.4% | – | 29.1 µM [rising, single point] |
| CCCn1c(=O)c(C(=O)Nc2ccccc2C(=O)OC)c(O)c2ccccc21 | 41.4% | 29.1 µM [rising, single point] | 0.731 µM [rising, single point] |
| COc1ccc(S(=O)(=O)N(C)CC(=O)N2CCOCC2)cc1 | -13.4% | – | – |
| Cn1nc(C(=O)NC2=NCCS2)ccc1=O | -98.6% | 25.9 µM [falling, partial curve] | 1.84 µM [falling, partial curve] |
| CC1(C)Cc2c(cnn2-c2ccccc2)C(NC(=O)CCN2CCCCO2)C1 (stereo unspecified) | -7.65% | – | – |
| C=CCN(c1ccccc1OC)S(=O)(=O)c1cccc(C(=O)NCc2cccs2)c1 | 434% | 23.1 µM [rising, partial curve] | – |
| O=C1c2ccccc2-c2nc3ncnn3c(-c3ccccc3Cl)c21 | 2.4% | – | – |
| CCn1c(=O)c2ccccc2n2c(SCC(=O)N3CCc4ccccc4C3)nnc12 | 13.5% | – | – |
| CC(=NCc1ccncc1)C1=C(O)c2ccccc2C1=O | 31.3% | 2.91 µM [rising, partial curve] | 6.51 µM [rising, single point] |
| N#Cc1c(N)n(-c2ccc(O)cc2)c2nc3ccccc3nc12 | 26.2% | – | – |
| CCCCCCCCCCOC(=O)Cn1c(COc2ccc(C)cc2)[n+](C)c2ccccc21 | -38.9% | 4.61 µM [falling, full curve] | 11.6 µM [falling, partial curve] |

Some values from the entries so far:
COc1ccc2c(c1)c(=O)oc1cc(OCC(=O)N3CCC(C)CC3)ccc12 – AC50 [1]: 20.6 µM [falling, single point]
Cn1nc(C(=O)NC2=NCCS2)ccc1=O – cell number change: -98.6%

From PubChem BioAssay AID2685 (National Center for Advancing Translational Sciences (NCATS), 2010)
